Measurements: article PMC3464894
Results are given in words; binding and its absence hold for the method and conditions named. Binding seen in cells or lysates may run through a third protein.

Assays:
[1] = biological target: T1, NEFA-interacting nuclear protein NIP30 (human (endogenous in HEK 293T)) (UniProt Q9GZU8); assay: co-IP
T1 sequence: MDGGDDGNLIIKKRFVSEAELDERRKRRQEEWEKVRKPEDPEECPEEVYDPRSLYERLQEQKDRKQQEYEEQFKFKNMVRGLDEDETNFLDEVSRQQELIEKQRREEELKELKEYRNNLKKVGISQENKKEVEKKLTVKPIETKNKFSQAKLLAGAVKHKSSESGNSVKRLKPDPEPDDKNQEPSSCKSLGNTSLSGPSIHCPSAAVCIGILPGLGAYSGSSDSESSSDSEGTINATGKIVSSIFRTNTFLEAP

[2] = biological target: HTLV-2 p28 (S-p28-HA) (HTLV-2); assay: pull-down; S-tag affinity purification on S-beads from lysates of 293T cells transfected with mock, S-GFP, S-p30-HA or S-p28-HA; overnight at 4°C; 1 M NaCl RIPA and RIPA washes; eluted by boiling in SDS loading buffer; immunoblot for the endogenous host protein

HTLV-2 p28 (S-p28-HA) was tested, and the binding [1] was “no binding”.

B1: NEFA-interacting nuclear protein NIP30 (protein, UniProt Q9GZU8 1-254)
chain: MDGGDDGNLIIKKRFVSEAELDERRKRRQEEWEKVRKPEDPEECPEEVYDPRSLYERLQEQKDRKQQEYEEQFKFKNMVRGLDEDETNFLDEVSRQQELIEKQRREEELKELKEYRNNLKKVGISQENKKEVEKKLTVKPIETKNKFSQAKLLAGAVKHKSSESGNSVKRLKPDPEPDDKNQEPSSCKSLGNTSLSGPSIHCPSAAVCIGILPGLGAYSGSSDSESSSDSEGTINATGKIVSSIFRTNTFLEAP
In the case of B1, the binding [2] is reported as “no binding”.
